Experimental data: the supplement of paper PMC10849652
The list shows a part of the results.

By UniProt entry, the sequences of proteins in these tests, tags left out. Where a name states a change or a piece, a line headed by the entry shows the natural chain unless it says otherwise.
UniProt Q9H1H9: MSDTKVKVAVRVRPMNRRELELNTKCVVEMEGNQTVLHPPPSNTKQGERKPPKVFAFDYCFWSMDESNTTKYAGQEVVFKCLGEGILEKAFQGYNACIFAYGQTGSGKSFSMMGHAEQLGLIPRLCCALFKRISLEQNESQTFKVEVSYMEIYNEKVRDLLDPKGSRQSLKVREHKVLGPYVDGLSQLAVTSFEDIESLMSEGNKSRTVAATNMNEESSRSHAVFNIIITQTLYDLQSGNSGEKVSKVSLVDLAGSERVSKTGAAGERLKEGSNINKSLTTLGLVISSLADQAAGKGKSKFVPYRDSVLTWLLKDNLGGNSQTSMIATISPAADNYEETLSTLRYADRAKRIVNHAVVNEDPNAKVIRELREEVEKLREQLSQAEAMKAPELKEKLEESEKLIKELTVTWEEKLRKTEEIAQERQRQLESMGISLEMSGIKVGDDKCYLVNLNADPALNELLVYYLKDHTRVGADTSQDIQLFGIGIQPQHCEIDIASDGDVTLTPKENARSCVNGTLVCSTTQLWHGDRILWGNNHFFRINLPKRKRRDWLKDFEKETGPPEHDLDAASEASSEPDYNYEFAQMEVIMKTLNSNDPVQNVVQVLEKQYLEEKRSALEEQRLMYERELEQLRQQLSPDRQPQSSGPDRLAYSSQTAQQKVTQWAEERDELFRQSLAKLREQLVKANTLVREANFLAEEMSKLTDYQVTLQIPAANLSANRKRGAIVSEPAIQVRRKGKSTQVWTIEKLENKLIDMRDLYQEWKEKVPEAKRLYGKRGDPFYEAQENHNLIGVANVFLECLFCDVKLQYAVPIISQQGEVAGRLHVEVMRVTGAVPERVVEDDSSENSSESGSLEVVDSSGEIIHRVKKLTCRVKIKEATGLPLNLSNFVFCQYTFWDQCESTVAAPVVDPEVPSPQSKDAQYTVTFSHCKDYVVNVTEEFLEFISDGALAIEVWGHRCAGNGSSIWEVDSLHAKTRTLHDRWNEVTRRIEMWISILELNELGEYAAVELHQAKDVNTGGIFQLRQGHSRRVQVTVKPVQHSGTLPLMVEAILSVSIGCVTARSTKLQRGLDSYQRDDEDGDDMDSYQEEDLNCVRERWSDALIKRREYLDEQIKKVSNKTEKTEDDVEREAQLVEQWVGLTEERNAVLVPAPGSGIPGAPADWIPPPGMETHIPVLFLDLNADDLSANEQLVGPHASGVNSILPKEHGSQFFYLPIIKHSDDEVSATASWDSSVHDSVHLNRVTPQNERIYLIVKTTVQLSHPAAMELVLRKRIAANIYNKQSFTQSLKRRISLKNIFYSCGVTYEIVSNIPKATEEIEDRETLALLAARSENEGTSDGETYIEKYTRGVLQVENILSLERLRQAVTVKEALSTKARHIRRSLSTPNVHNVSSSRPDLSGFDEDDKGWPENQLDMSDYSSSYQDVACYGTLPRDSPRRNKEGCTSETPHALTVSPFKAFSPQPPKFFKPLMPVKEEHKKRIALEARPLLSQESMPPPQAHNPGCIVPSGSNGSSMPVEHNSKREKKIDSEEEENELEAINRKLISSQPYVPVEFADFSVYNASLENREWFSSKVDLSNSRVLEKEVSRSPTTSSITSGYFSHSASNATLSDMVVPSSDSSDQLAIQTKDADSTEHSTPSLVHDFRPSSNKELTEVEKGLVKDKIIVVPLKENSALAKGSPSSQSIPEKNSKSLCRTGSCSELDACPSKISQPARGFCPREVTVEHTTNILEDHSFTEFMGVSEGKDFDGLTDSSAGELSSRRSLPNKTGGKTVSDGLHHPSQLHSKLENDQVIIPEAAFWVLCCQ
UniProt O94953: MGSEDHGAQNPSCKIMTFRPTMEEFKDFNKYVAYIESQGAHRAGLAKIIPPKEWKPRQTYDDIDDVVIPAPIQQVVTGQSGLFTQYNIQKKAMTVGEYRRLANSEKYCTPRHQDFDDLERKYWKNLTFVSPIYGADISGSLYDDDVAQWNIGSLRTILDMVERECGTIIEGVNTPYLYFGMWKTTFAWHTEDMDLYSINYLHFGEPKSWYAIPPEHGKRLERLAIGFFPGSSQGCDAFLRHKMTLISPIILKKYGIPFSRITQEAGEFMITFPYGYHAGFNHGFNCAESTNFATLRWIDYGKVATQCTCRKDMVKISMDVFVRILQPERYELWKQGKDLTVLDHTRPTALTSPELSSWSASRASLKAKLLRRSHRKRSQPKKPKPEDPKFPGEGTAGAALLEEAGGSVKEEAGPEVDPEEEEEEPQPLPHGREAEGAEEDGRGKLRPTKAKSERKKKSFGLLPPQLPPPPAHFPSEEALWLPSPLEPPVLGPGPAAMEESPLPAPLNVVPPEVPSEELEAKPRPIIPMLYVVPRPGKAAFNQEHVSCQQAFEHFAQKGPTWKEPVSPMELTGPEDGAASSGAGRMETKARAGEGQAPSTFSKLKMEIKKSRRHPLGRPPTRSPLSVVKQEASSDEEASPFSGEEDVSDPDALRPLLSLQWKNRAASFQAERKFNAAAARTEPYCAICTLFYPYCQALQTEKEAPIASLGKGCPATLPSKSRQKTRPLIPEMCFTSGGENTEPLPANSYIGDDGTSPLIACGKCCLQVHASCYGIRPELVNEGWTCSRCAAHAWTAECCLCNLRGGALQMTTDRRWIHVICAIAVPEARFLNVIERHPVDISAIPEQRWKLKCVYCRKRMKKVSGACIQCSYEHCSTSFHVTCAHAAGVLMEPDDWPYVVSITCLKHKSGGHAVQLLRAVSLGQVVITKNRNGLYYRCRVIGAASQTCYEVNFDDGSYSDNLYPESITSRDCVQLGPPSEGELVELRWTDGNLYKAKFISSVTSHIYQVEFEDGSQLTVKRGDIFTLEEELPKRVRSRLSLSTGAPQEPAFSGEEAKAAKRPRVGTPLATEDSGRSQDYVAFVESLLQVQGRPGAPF
UniProt O60333: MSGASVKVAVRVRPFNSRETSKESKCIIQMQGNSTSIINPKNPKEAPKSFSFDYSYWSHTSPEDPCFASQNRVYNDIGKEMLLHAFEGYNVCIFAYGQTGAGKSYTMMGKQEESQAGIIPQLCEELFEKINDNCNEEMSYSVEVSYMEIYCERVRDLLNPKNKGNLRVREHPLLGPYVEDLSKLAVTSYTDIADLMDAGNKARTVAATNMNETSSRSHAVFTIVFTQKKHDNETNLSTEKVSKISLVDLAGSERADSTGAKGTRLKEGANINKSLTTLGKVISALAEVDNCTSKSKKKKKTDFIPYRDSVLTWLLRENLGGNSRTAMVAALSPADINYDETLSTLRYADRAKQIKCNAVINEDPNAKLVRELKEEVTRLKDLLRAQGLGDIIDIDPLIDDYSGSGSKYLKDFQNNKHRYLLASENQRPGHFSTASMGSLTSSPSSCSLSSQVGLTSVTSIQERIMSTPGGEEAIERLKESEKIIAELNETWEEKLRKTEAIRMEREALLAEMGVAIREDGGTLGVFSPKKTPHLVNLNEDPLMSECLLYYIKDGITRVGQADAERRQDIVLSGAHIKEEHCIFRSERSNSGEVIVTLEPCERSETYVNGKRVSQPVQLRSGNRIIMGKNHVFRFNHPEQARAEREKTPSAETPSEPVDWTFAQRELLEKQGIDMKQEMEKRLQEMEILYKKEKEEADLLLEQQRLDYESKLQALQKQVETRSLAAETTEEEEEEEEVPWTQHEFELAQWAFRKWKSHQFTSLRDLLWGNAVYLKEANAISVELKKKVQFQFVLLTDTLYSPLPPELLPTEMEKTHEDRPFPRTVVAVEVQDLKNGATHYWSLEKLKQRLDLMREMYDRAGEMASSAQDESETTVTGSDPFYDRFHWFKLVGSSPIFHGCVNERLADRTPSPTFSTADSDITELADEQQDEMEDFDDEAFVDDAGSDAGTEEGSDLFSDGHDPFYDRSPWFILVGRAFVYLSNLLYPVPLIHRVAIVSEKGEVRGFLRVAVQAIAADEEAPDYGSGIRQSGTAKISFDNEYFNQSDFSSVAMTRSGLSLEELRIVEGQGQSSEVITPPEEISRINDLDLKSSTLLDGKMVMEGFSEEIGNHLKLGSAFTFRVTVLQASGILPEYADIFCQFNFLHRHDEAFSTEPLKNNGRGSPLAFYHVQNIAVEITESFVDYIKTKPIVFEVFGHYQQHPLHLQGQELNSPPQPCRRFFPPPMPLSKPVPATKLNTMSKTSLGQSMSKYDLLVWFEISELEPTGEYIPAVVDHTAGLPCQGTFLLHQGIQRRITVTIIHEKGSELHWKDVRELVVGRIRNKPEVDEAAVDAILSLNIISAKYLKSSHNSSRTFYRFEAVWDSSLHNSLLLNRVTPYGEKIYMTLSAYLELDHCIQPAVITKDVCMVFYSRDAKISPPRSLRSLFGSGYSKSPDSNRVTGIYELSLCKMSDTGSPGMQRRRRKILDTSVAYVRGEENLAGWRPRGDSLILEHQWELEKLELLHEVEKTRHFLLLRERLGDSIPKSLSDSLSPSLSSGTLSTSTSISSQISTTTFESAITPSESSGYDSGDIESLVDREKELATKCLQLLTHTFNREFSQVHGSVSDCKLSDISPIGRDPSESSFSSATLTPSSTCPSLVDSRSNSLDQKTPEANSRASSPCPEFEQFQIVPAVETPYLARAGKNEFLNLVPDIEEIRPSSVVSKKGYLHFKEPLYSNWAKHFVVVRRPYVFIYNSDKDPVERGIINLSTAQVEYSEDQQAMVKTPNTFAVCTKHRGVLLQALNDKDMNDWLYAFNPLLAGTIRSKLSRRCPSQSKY
UniProt Q96Q89: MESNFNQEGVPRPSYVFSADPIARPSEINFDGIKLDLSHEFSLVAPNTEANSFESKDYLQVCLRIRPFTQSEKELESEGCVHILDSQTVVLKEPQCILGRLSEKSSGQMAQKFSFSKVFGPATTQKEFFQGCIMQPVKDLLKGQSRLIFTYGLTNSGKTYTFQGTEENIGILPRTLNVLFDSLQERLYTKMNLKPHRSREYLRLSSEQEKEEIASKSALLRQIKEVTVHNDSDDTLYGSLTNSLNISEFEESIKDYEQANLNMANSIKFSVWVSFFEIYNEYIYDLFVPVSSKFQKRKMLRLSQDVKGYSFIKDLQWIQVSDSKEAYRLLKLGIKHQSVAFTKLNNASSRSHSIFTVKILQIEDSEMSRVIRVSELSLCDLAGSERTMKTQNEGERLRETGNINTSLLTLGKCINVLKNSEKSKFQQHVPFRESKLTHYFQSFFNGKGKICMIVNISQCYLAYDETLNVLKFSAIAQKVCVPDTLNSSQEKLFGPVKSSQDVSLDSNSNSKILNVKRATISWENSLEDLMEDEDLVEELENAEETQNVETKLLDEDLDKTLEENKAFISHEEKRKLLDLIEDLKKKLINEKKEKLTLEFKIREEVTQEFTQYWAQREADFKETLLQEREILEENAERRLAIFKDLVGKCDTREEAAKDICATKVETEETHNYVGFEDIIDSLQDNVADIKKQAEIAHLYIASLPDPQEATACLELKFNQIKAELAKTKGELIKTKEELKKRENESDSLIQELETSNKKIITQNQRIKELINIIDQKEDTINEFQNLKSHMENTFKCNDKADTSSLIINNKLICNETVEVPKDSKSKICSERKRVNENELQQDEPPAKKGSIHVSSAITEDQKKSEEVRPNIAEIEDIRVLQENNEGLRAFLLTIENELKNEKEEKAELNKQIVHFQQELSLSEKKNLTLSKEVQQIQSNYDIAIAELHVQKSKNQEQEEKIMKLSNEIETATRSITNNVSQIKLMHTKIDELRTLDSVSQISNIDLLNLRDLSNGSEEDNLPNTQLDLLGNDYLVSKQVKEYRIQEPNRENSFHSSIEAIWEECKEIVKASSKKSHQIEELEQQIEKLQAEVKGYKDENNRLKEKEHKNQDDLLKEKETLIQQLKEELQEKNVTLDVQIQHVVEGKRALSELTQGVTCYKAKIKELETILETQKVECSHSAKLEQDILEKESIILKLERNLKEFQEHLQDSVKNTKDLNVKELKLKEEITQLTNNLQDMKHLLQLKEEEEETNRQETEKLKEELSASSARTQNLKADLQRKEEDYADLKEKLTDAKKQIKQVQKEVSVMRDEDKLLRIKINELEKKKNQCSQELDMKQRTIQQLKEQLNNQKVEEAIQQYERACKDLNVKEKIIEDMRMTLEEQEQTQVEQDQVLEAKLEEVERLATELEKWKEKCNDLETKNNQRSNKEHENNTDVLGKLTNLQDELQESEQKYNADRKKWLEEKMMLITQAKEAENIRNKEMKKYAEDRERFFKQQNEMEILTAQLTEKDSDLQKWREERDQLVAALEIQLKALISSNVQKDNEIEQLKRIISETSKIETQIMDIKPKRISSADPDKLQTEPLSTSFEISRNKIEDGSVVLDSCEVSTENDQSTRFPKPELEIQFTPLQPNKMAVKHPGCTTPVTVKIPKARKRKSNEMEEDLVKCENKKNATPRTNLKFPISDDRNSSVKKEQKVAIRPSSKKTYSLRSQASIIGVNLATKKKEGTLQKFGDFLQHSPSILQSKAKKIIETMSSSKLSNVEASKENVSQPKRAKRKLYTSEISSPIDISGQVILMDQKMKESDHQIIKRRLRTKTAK

Key:
Assay in all cases: log2 fold change, soluble protein after heating vs DMSO (PISA); higher = thermal stabilisation; K562 lysate, 10 uM; active = over 0.2 and 3.5 SD of the protein, either way, in both replicates (recomputed)
nilotinib = compound: Cc1cn(-c2cc(NC(=O)c3ccc(C)c(Nc4nccc(-c5cccnc5)n4)c3)cc(C(F)(F)F)c2)cn1 [nilotinib]
Summary of the method: (§1)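 Thermal stability, expressed as log-two fold change relative to solvent controls, is given from duplicates. Crude K562 extract in PBS pH 7.4 with 1 mM MgCl2, at 1 mg/mL protein, was treated with 10 μM compound for 30 min and heated in aliquots for 3 min across 48°C-58°C. After pooling, adjustment to 0.5% NP-40 at 4°C and centrifugation at 21,000xg for 90 min, supernatant protein was measured by TMTpro 16plex LC-MS/MS with channel sums equalised.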

[1] = compound: Cc1nc(Nc2n[nH]c3c2CN(C(=O)N[C@H](CN(C)C)c2ccccc2)C3(C)C)c2sccc2n1
Summary of the method: as §1

dasatinib = compound: Cc1nc(Nc2ncc(C(=O)Nc3c(C)cccc3Cl)s2)cc(N2CCN(CCO)CC2)n1 [dasatinib]
Summary of the method: as §1

[2] = compound: Cc1ncc(-c2ccnc(Nc3ccc(S(C)(=O)=O)cc3)n2)n1C(C)C
Summary of the method: as §1

[3] = compound: Cn1cc(-c2ccc3c(c2)CCN3C(=O)Cc2cccc(C(F)(F)F)c2)c2c(N)ncnc21
Summary of the method: as §1

quisinostat = compound: Cn1cc(CNCC2CCN(c3ncc(C(=O)NO)cn3)CC2)c2ccccc21 [quisinostat]
Summary of the method: as §1

tipifarnib = compound: Cn1cncc1[C@@](N)(c1ccc(Cl)cc1)c1ccc2c(c1)c(-c1cccc(Cl)c1)cc(=O)n2C [tipifarnib]
Summary of the method: as §1

[4] = compound: NC(=O)Nc1cc(-c2cccc(F)c2)sc1C(=O)N[C@H]1CCCNC1
Summary of the method: as §1

[5] = compound: NC(=O)c1cnc(N[C@@H]2CCCC[C@@H]2N)nc1Nc1cccc(-n2nccn2)c1
Summary of the method: as §1

[6] = compound: NC1(c2ccc(-c3nc4ccn5c(=O)[nH]nc5c4cc3-c3ccccc3)cc2)CCC1
Summary of the method: as §1

Measured: log2 fold change

KLHL42 (UniProt Q9P2K6)
inactive: nilotinib 0.003 | [1] 0.088 | dasatinib 0.048 | [2] -0.04 | [3] 0.032 | quisinostat -0.058 | tipifarnib -0.056 | [4] 0.124 | [5] 0.065 | [6] 0.039

LARP1B, A0A3B3ISF0
inactive: nilotinib 0.035 | [1] -0.016 | dasatinib -0.041 | [2] -0.007 | [3] 0.117 | quisinostat 0.002 | tipifarnib 0.14 | [4] -0.002 | [5] -0.021 | [6] 0.018

KDSR (UniProt Q06136)
inactive: nilotinib -0.01 | [1] 0.025 | dasatinib -0.053 | [2] -0.025 | [3] -0.084 | quisinostat -0.069 | tipifarnib -0.039 | [4] 0.045 | [5] -0.018 | [6] -0.024

KNOP1 (UniProt Q1ED39)
inactive: nilotinib -0.09 | [1] 0.055 | dasatinib -0.028 | [2] -0.095 | [3] -0.001 | quisinostat -0.169 | tipifarnib -0.01 | [4] 0.007 | [5] 0.048 | [6] -0.062

KIF21A isoform 5 (UniProt Q7Z4S6)
inactive: nilotinib 0.011 | [1] 0.036 | dasatinib 0.001 | [2] 0 | [3] 0.001 | quisinostat -0.011 | tipifarnib -0.048 | [4] 0.048 | [5] -0.009 | [6] -0.028

KIF13A isoform 4 (UniProt Q9H1H9)
inactive: nilotinib -0.023 | [1] 0.06 | dasatinib 0.018 | [2] 0.009 | [3] 0.005 | quisinostat 0.001 | tipifarnib 0.067 | [4] 0.042 | [5] -0.014 | [6] -0.116

KIF4B (UniProt Q2VIQ3)
inactive: nilotinib -0.016 | [1] 0.034 | dasatinib -0.013 | [2] 0.049 | [3] 0.096 | quisinostat -0.08 | tipifarnib -0.009 | [4] 0.037 | [5] 0.045 | [6] -0.078

KIF21A (UniProt H0YI78)
inactive: nilotinib 0.067 | [1] -0.005 | dasatinib 0.044 | [2] 0.143 | [3] 0.055 | tipifarnib -0.069 | [5] 0.104 | [6] 0.082

KNSTRN (UniProt Q9Y448)
inactive: nilotinib 0.012 | [1] 0.03 | dasatinib -0.048 | [2] -0.071 | [3] -0.005 | quisinostat 0.165 | tipifarnib 0.033 | [4] -0.02 | [5] -0.002 | [6] -0.01

KRI1 (UniProt Q8N9T8)
inactive: nilotinib -0.099 | [1] 0.02 | dasatinib -0.025 | [2] 0 | [3] -0.014 | quisinostat -0.125 | tipifarnib -0.073 | [4] -0.006 | [6] 0.06

KIF26A (UniProt Q9ULI4)
inactive: nilotinib 0.035 | [1] -0.013 | dasatinib 0.003 | [2] 0.01 | [3] 0.014 | quisinostat -0.092 | tipifarnib 0.226 | [4] -0.078 | [6] -0.091

KEAP1 (UniProt Q14145)
inactive: nilotinib -0.01 | [1] 0.01 | dasatinib -0.023 | [2] -0.014 | [3] -0.044 | quisinostat -0.078 | tipifarnib -0.02 | [4] 0.011 | [5] 0.022 | [6] -0.002

KRIT1 (UniProt O00522)
inactive: nilotinib -0.011 | [1] -0.04 | dasatinib 0.027 | [2] 0.041 | [3] -0.048 | quisinostat -0.147 | tipifarnib -0.135 | [4] 0.09 | [5] 0.021 | [6] -0.005

LARP4B (UniProt Q92615)
inactive: nilotinib -0.05 | [1] 0.03 | dasatinib -0.053 | [2] -0.02 | [3] 0.012 | quisinostat -0.026 | tipifarnib 0 | [4] 0.026 | [5] -0.001 | [6] 0.008

KMT2D isoform 3 (UniProt O14686)
inactive: nilotinib 0.029 | [1] -0.012 | dasatinib -0.009 | [2] 0.004 | [3] -0.004 | quisinostat -0.028 | tipifarnib -0.043 | [4] 0.021 | [5] 0.001 | [6] 0.012

KIAA0586 isoform 3 (UniProt Q9BVV6)
inactive: nilotinib -0.044 | [1] 0.073 | dasatinib -0.132 | [2] -0.02 | [3] -0.05 | quisinostat 0.014 | tipifarnib -0.152 | [4] 0.102 | [6] -0.024

KIAA1586 (UniProt Q9HCI6)
inactive: nilotinib 0 | [1] 0.229 | dasatinib 0.044 | [2] -0.088 | [3] -0.01 | tipifarnib -0.213 | [6] -0.015

KLC3 isoform 3 (UniProt Q6P597)
inactive: nilotinib -0.193 | [1] 0.006 | [2] -0.036 | quisinostat -0.075 | tipifarnib 0.034 | [4] 0.061 | [5] 0

Retrieved one by one from the list above, 2 records:
KIF13A isoform 4 (UniProt Q9H1H9)
inactive: nilotinib -0.023 | [1] 0.06 | dasatinib 0.018 | [2] 0.009 | [3] 0.005 | quisinostat 0.001 | tipifarnib 0.067 | [4] 0.042 | [5] -0.014 | [6] -0.116

KNSTRN (UniProt Q9Y448)
inactive: nilotinib 0.012 | [1] 0.03 | dasatinib -0.048 | [2] -0.071 | [3] -0.005 | quisinostat 0.165 | tipifarnib 0.033 | [4] -0.02 | [5] -0.002 | [6] -0.01

(cont.)

KLHDC10 (UniProt Q6PID8)
inactive: nilotinib 0.029 | [1] -0.018 | dasatinib 0.134 | [2] -0.001 | [3] -0.037 | quisinostat -0.029 | tipifarnib 0.023 | [4] 0.051 | [6] 0.07

KDM4B (UniProt O94953)
inactive: nilotinib 0.081 | [1] -0.062 | dasatinib -0.084 | [2] -0.234 | [3] 0.06 | quisinostat 0.043 | tipifarnib -0.032 | [4] -0.028 | [6] 0.026

KNTC1 (UniProt P50748)
inactive: nilotinib -0.019 | [1] 0.011 | dasatinib -0.046 | [2] -0.006 | [3] 0.029 | quisinostat -0.047 | tipifarnib -0.013 | [4] 0.025 | [5] 0.015 | [6] -0.036

KPNB1 (UniProt Q14974)
inactive: nilotinib 0.006 | [1] -0.012 | dasatinib -0.037 | [2] 0.01 | [3] -0.002 | quisinostat -0.009 | tipifarnib -0.01 | [4] -0.006 | [5] 0.001 | [6] -0.004

KIF16B isoform 2 (UniProt Q96L93)
inactive: nilotinib 0.134 | [1] 0 | dasatinib -0.264 | [2] -0.209 | [3] -0.042 | quisinostat -0.011 | tipifarnib 0.005 | [4] -0.012 | [6] 0.038

KIF1B isoform 3 (UniProt O60333)
inactive: nilotinib 0.062 | [1] -0.001 | dasatinib 0.429 | [2] 0.008 | [3] -0.044 | quisinostat 0.176 | tipifarnib -0.196 | [4] 0.005 | [6] 0.084

KIF1C (UniProt O43896)
inactive: nilotinib -0.076 | [1] -0.048 | [2] 0.173 | quisinostat -0.11 | tipifarnib 0.129 | [4] 0.165 | [5] 0.001 | [6] -0.102

KLHDC8B (UniProt Q8IXV7)
inactive: nilotinib -0.03 | [1] 0.047 | dasatinib -0.013 | [2] -0.181 | [3] -0.035 | quisinostat -0.012 | tipifarnib -0.086 | [4] -0.005 | [6] -0.008

KIF3B (UniProt O15066)
inactive: nilotinib -0.051 | [1] 0.002 | [2] 0.012 | quisinostat -0.022 | tipifarnib 0.014 | [4] 0.024 | [5] 0.043 | [6] -0.013

KIF20B isoform 2 (UniProt Q96Q89)
inactive: nilotinib 0.092 | [1] -0.019 | dasatinib 0.067 | [2] -0.112 | [3] 0.218 | quisinostat -0.214 | tipifarnib -0.07 | [4] -0.01 | [6] -0.219

KLF3 (UniProt P57682)
inactive: nilotinib 0.019 | [1] -0.074 | [2] -0.14 | quisinostat -0.021 | tipifarnib -0.016 | [4] -0.064

KDM4A (UniProt O75164)
inactive: nilotinib -0.065 | [1] -0.019 | dasatinib -0.011 | [2] -0.034 | [3] 0.007 | quisinostat -0.086 | tipifarnib -0.037 | [4] 0.022 | [6] -0.036

KLHL7 isoform 3 (UniProt Q8IXQ5)
inactive: nilotinib -0.086 | [1] -0.031 | [2] 0.039 | quisinostat -0.016 | tipifarnib -0.059 | [4] -0.018 | [5] -0.002
